Measured values: patent US10563263B2, “Genetic polymorphisms associated with statin response and cardiovascular diseases, methods of detection and uses thereof” (CELERA CORPORATION, priority 2010, dated 2020)
The source gives many values for each of these; only a part stands here.

Test system: revascularization, unstable angina requiring hospitalization, MI, all causes of death, or stroke
Experiment: PROVE IT-TIMI 22: SNP by treatment interaction (high-dose atorvastatin vs standard-dose pravastatin), logistic regression (synergy index), primary composite endpoint
Type: in vivo, human

SMILES: CC(C)c1c(C(=O)Nc2ccccc2)c(-c2ccccc2)c(-c2ccc(F)cc2)n1CC[C@@H](O)C[C@@H](O)CC(=O)O [Atorvastatin, atorvastatin]
- OR (rs11749272 allele T, DOM, Imputed, atorvastatin vs pravastatin): 0.593
- OR (rs11853619 allele C, REC, Imputed, atorvastatin vs pravastatin): 1.946
- OR (rs11856780 allele A, REC, Imputed, atorvastatin vs pravastatin): 1.946
- OR (rs11901899 allele A DOM Imputed): 1.452
- OR (rs11901899 allele A, DOM, Imputed, atorvastatin vs pravastatin): 1.452
- OR (rs11903290 allele C, REC, Imputed, atorvastatin vs pravastatin): 2.698
- OR (rs11909480 allele G, ADD, Imputed, atorvastatin vs pravastatin): 0.4305
- OR (rs11909480 allele G, DOM, Imputed, atorvastatin vs pravastatin): 0.3714
- OR (rs11910289 allele T, ADD, Imputed, atorvastatin vs pravastatin): 1.815
- OR (rs11910289 allele T, DOM, Imputed, atorvastatin vs pravastatin): 1.911
- OR (rs11926319 allele G ADD Imputed): 0.9777
- OR (rs11926319 allele G DOM Imputed): 1.007
- OR (rs11926319 allele G, DOM, Imputed, atorvastatin vs pravastatin): 1.007
- OR (rs11933744 allele T, REC, Imputed, atorvastatin vs pravastatin): 0.8701
- OR (rs11934919 allele C, REC, Imputed, atorvastatin vs pravastatin): 0.8636
- OR (rs11934957 allele C, REC, Imputed, atorvastatin vs pravastatin): 0.8636
- OR (rs11956952 allele C DOM Imputed): 0.6491
- OR (rs11959206 allele A, REC, Imputed, atorvastatin vs pravastatin): 1.201
- OR (rs12025826 allele G DOM Imputed): 1.459
- OR (rs12038613 allele C, REC, Imputed, atorvastatin vs pravastatin): 0.8998
- OR (rs12151417 allele T, DOM, Imputed, atorvastatin vs pravastatin): 1.517
- OR (rs12153185 allele T DOM Imputed): 0.5728
- OR (rs12153185 allele T, DOM, Imputed, atorvastatin vs pravastatin): 0.5728
- OR (rs12182651 allele T ADD Imputed): 0.982
- OR (rs12182651 allele T DOM Imputed): 0.9744
- OR (rs12182651 allele T, DOM, Imputed, atorvastatin vs pravastatin): 0.9744
- OR (rs12193568 allele G DOM Imputed): 1.618
- OR (rs12235345 allele C, DOM, Imputed, atorvastatin vs pravastatin): 1.768
- OR (rs12264914 allele C DOM Imputed): 0.4742
- OR (rs12307767 allele C DOM Imputed): 0.6033
- OR (rs12324786 allele T, REC, Imputed, atorvastatin vs pravastatin): 2.198
- OR (rs12336958 allele G, DOM, Imputed, atorvastatin vs pravastatin): 0.7989
- OR (rs12407412 allele C ADD Imputed): 1.439
- OR (rs12407412 allele C DOM Imputed): 1.57
- OR (rs12407412 allele C, ADD, Imputed, atorvastatin vs pravastatin): 1.439
- OR (rs12407412 allele C, DOM, Imputed, atorvastatin vs pravastatin): 1.57
- OR (rs12418971 allele C, REC, Imputed, atorvastatin vs pravastatin): 3.381
- OR (rs12420184 allele G DOM Imputed): 1.429
- OR (rs12420184 allele G, DOM, Imputed, atorvastatin vs pravastatin): 1.429
- OR (rs12422750 allele A DOM Imputed): 0.5888
- OR (rs12433968 allele T, DOM, Imputed, atorvastatin vs pravastatin): 1.059
- OR (rs12445477 allele A, DOM, Imputed, atorvastatin vs pravastatin): 0.7231
- OR (rs12446951 allele A ADD Imputed): 1.549
- OR (rs12446951 allele A DOM Imputed): 1.63
- OR (rs12447191 allele T, ADD, Genotyped, atorvastatin vs pravastatin): 0.7641
- OR (rs12447191 allele T, DOM, Genotyped, atorvastatin vs pravastatin): 0.6902
- OR (rs12457400 allele G DOM Imputed): 0.578
- OR (rs12465349 allele A, REC, Imputed, atorvastatin vs pravastatin): 1.865
- OR (rs12515472 allele A, DOM, Imputed, atorvastatin vs pravastatin): 1.913
- OR (rs12521291 allele G ADD Imputed): 1.07
- OR (rs12526849 allele T ADD Imputed): 1.012
- OR (rs12548906 allele G, ADD, Imputed, atorvastatin vs pravastatin): 1.763
- OR (rs12596240 allele G, DOM, Imputed, atorvastatin vs pravastatin): 0.9009
- OR (rs12618781 allele A, DOM, Imputed, atorvastatin vs pravastatin): 1.082
- OR (rs12678600 allele A DOM Imputed): 0.7992
- OR (rs12678600 allele A, DOM, Imputed, atorvastatin vs pravastatin): 0.7992
- OR (rs12692229 allele T, ADD, Imputed, atorvastatin vs pravastatin): 1.608
- OR (rs12713324 allele T, DOM, Imputed, atorvastatin vs pravastatin): 1.501
- OR (rs12719415 allele T DOM Imputed): 0.5934
- OR (rs12719415 allele T, DOM, Imputed, atorvastatin vs pravastatin): 0.5934
- OR (rs12820589 allele G, ADD, Imputed, atorvastatin vs pravastatin): 0.882
- OR (rs12820589 allele G, DOM, Imputed, atorvastatin vs pravastatin): 0.926
- OR (rs12831292 allele G DOM Imputed): 0.7047
- OR (rs12831292 allele G, ADD, Imputed, atorvastatin vs pravastatin): 0.7739
- OR (rs12831292 allele G, DOM, Imputed, atorvastatin vs pravastatin): 0.7047
- OR (rs12923993 allele C DOM Imputed): 2.011
- OR (rs12936964 allele T DOM Imputed): 1.123
- OR (rs12960663 allele G ADD Imputed): 0.797
- OR (rs13012636 allele G, REC, Imputed, atorvastatin vs pravastatin): 2.717
- OR (rs13038146 allele C ADD Imputed): 1.389
- OR (rs13038146 allele C, ADD, Imputed, atorvastatin vs pravastatin): 1.389
- OR (rs13038146 allele C, REC, Imputed, atorvastatin vs pravastatin): 2.069
- OR (rs13089860 allele A, DOM, Imputed, atorvastatin vs pravastatin): 0.5987
- OR (rs13102419 allele T, REC, Imputed, atorvastatin vs pravastatin): 1.104
- OR (rs13172910 allele A DOM Imputed): 0.6398
- OR (rs13194907 allele A ADD Imputed): 1.091
- OR (rs13194907 allele A, ADD, Imputed, atorvastatin vs pravastatin): 1.091
- OR (rs13195745 allele A ADD Imputed): 1.091
- OR (rs13195745 allele A, ADD, Imputed, atorvastatin vs pravastatin): 1.091
- OR (rs13265054 allele T DOM Imputed): 0.7541
- OR (rs13265054 allele T, DOM, Imputed, atorvastatin vs pravastatin): 0.7541
- OR (rs13282131 allele C, ADD, Imputed, atorvastatin vs pravastatin): 1.295
- OR (rs13282131 allele C, REC, Imputed, atorvastatin vs pravastatin): 1.884
- OR (rs13353526 allele C DOM Imputed): 0.8239
- OR (rs13387284 allele A, DOM, Imputed, atorvastatin vs pravastatin): 1.094
- OR (rs13401462 allele C, DOM, Imputed, atorvastatin vs pravastatin): 0.8697
- OR (rs13409045 allele T, ADD, Imputed, atorvastatin vs pravastatin): 1.009
- OR (rs16877387 allele C REC Imputed): 1.186
- OR (rs16938626, allele G, DOM, Imputed, PROVE-IT, vs pravastatin): 0.7689
- OR (rs16938626 allele G DOM Imputed): 0.7689
- OR (rs16964300, allele G, ADD, Imputed, PROVE-IT, vs pravastatin): 0.7656
- OR (rs16964300, allele G, DOM, Imputed, PROVE-IT, vs pravastatin): 0.6717
- OR (rs16986282, allele G, DOM, Imputed, PROVE-IT, vs pravastatin): 0.3565
- OR (rs16998821 allele C DOM Imputed): 1.138
- OR (rs17007620, allele G, ADD, Imputed, PROVE-IT, vs pravastatin): 1.033
- OR (rs17007620, allele G, DOM, Imputed, PROVE-IT, vs pravastatin): 1.127
- OR (rs17007620 allele G ADD Imputed): 1.033
- OR (rs17007620 allele G DOM Imputed): 1.127
- OR (rs17014326, allele G, DOM, Imputed, PROVE-IT, vs pravastatin): 1.215
- OR (rs17023290 allele C DOM Imputed): 0.8286
- OR (rs17047957, allele C, DOM, Imputed, PROVE-IT, vs pravastatin): 1.801
- OR (rs17047957 allele C DOM Imputed): 1.801
- OR (rs17073341, allele A, ADD, Imputed, PROVE-IT, vs pravastatin): 2.051
- OR (rs17073341, allele A, DOM, Imputed, PROVE-IT, vs pravastatin): 2.316
- OR (rs17076972 allele C (A1), REC, Imputed, atorvastatin vs pravastatin): 0.9776
- OR (rs17076972 allele C ADD Imputed): 1.031
- OR (rs17138702, allele G, ADD, Imputed, PROVE-IT, vs pravastatin): 1.127
- OR (rs17189710, allele T, ADD, Imputed, PROVE-IT, vs pravastatin): 1.382
- OR (rs17189710, allele T, REC, Imputed, PROVE-IT, vs pravastatin): 2.127
- OR (rs17189710 allele T (A1), ADD, Imputed, atorvastatin vs pravastatin): 1.382
- OR (rs17196143 allele A (A1), ADD, Imputed, atorvastatin vs pravastatin): 0.7066
- OR (rs17310176, allele T, ADD, Imputed, PROVE-IT, vs pravastatin): 0.6446
- OR (rs17310176, allele T, DOM, Imputed, PROVE-IT, vs pravastatin): 0.6022
- OR (rs17353809 allele G (A1), ADD, Imputed, atorvastatin vs pravastatin): 0.9859
- OR (rs17358860, allele A, DOM, Imputed, PROVE-IT, vs pravastatin): 0.5513
- OR (rs17370541, allele T, REC, Imputed, PROVE-IT, vs pravastatin): 1.119
- OR (rs17446418 allele G (A1), DOM, Imputed, atorvastatin vs pravastatin): 1.044
- OR (rs17530747, allele T, DOM, Imputed, PROVE-IT, vs pravastatin): 1.033
- OR (rs17530747 allele T (A1), DOM, Imputed, atorvastatin vs pravastatin): 1.033
- OR (rs17604285 allele C (A1), ADD, Imputed, atorvastatin vs pravastatin): 0.9476
- OR (rs17604285 allele C (A1), DOM, Imputed, atorvastatin vs pravastatin): 0.9476
- OR (rs17649114, allele C, DOM, Imputed, PROVE-IT, vs pravastatin): 1.776
- OR (rs17662322 allele T (A1), DOM, Imputed, atorvastatin vs pravastatin): 0.7561
- OR (rs17766172, allele A, REC, Imputed, PROVE-IT, vs pravastatin): 0.5776
- OR (rs17769826 allele T (A1), ADD, Imputed, atorvastatin vs pravastatin): 0.9859
- OR (rs17821641 allele T (A1), ADD, Imputed, atorvastatin vs pravastatin): 1.021
- OR (rs72746987, allele A, DOM, Genotyped, atorvastatin vs pravastatin): 1.033
- OR (rs77638540, allele T, DOM, Genotyped, atorvastatin vs pravastatin): 0.3879
